Results as given in PubChem BioAssay AID2685 (National Center for Advancing Translational Sciences (NCATS), 2010).
The list shows a part of the results. The main result of the screen is listed elsewhere. These columns were measured beside it and carry no call. The list favours compounds with an active or inconclusive main result. Potencies come from curve fits of mixed quality, noted in brackets.

Experiment: qHTS Assay for Lipid Storage Modulators in Drosophila S3 Cells;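 for cell number change: cells counted by Cell Tracker Red CMTPX staining in the red channel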
Settings: BODIPY lipid droplet fluorescence, 18-24 h; for cell number change: measured here: cell count max response, cells fed with added oleic acid
In short: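 Laser-scanning cytometry quantifies lipid droplet accumulation (500–530 nm total intensity; droplet/cell object ratio) in oleic acid-fed (400 uM added) Drosophila S3 cells treated with a concentration series. 20 uM Triacsin C defined 100% inhibition.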

[1] = measured here: lipid fluorescence (Fed channel) AC50, cells fed with added oleic acid
[2] = measured here: cell number channel AC50, cells fed with added oleic acid

Structure (SMILES)	cell number change [%]	AC50 [1]	AC50 [2]
COC(=O)C(CC(C)C)NC(=O)CNC(=O)c1ccccc1C (stereo not drawn)	6.97	23.1 µM [falling, partial curve]	
COc1ccc(NC(=O)CCCNC(=O)Cn2cnc3sc4c(c3c2=O)CCCC4)c(OC)c1	10.7		
CC(Sc1ccccc1)C(=O)Nc1ccccc1C(=O)N1CCOCC1 (stereo not drawn)	-16.2	0.13 µM [falling, full curve]	
O=S(=O)(c1cccc(-c2csc(-c3cccnc3)n2)c1)N1CCOCC1			0.103 µM [rising, full curve]
CCCCNC(=O)NC(C(=O)OC)C12CC3CC(CC(C3)C1)C2 (stereo not drawn)	-22.2	1.64 µM [falling, full curve]	
COc1ccc(C2N(S(=O)(=O)c3ccccc3)CCN2S(=O)(=O)c2ccc(C)cc2)cc1 (stereo not drawn)			3.66 µM [rising, partial curve]
COC(=O)c1c(NC(=O)c2cccs2)sc2c1CCC(C)C2 (stereo not drawn)	20.1	0.731 µM [rising, full curve, poor fit]	
Cc1cccc(C)c1-n1nnnc1SCC(=O)N1CCNC1=O	69		16.4 µM [rising, partial curve, poor fit]
CNC(=O)c1c[nH]c2ccc(S(=O)(=O)Nc3cccc(Cl)c3C)cc2c1=O	-17.2	29.1 µM [falling, single point]	
CC(C)NC(=S)n1cc(C(=O)c2cc(Cl)cc(Cl)c2O)cn1	-11.8	2.51 µM [falling, partial curve]	
O=C(NCc1ccncc1)c1cnccn1	4.45	6.51 µM [rising, single point]	
Cc1cccc(C[C@H](C(=O)O)N2C(=O)c3ccc(C(=O)O)cc3C2=O)c1	-1.35	9.2 µM [falling, partial curve]	
Cn1c(=O)c2c(ncn2CC(=O)Nc2ccc(Cl)cc2Cl)n(C)c1=O	-7.58	1.84 µM [rising, full curve, poor fit]	
COCCSc1ccccc1C(=O)Nc1cccnc1	22.1		
CC(C)(C)C(=O)Nc1ncc(C(F)(F)F)cc1Cl	-22.1		
CCOc1cccc(=O)c2c(C)n(Cc3ccco3)c(C)c12	-32.6		25.9 µM [falling, partial curve]
CN(C)C1(CNC(=O)c2cccc(S(=O)(=O)NCc3ccccc3)c2)CCCCC1	-11.1	0.082 µM [rising, full curve, poor fit]	
NNc1ccc(Cl)c(C(=O)O)c1	-18.5	18.4 µM [falling, partial curve]	
CCOC(=O)CSc1nnc(-c2ccco2)n1-c1ccccc1	-11.3		0.058 µM [falling, full curve, poor fit]
Cc1ccc(NC(=O)CSCC(=O)Nc2ccccc2N2CCCCC2)cc1	73.5		2.59 µM [rising, full curve]

Structure (SMILES)	cell number change [%]	AC50 [1]	AC50 [2]
CCOC(=O)c1sc2nc(C)nc(SC(C)C(=O)NC3CC3)c2c1C (stereo not drawn)	-13	0.092 µM [falling, full curve, poor fit]	
Cc1cccc(N(CC(=O)NCc2ccc3c(c2)OCO3)C(=O)CCC(=O)Nc2ccccn2)c1	-6.31	5.17 µM [rising, partial curve]	
O=C(CN1CCN(c2ccccc2F)CC1)Nc1nnc(C(F)(F)F)s1	-3.28	1.16 µM [falling, single point]	
Cc1ccc(-c2nn3c(C)nnc3s2)cc1NC(=O)c1ccc(-c2ccc(Cl)cc2Cl)o1	-62	5.17 µM [falling, full curve]	5.17 µM [falling, full curve, poor fit]
CCOc1ccc(CN(C)CC(=O)Nc2cc(C)c(C)cc2[N+](=O)[O-])cc1	24.7	29.1 µM [rising, single point]	
COc1ccccc1NC(=O)C1CCN(C(=O)c2ccco2)CC1	2.56	5.17 µM [rising, single point]	
COc1ccc(-c2cc3c(=O)n(CC(=O)Nc4ccc(Cl)cc4)ncn3n2)cc1	-17.1	6.51 µM [rising, single point]	
CCCCC1=CC2=C(c3ccco3)C(=O)C(C)(OC(=O)c3ccc(OC)cc3)C(=O)C2=CN1CCCCO (stereo not drawn)	-14.4		6.51 µM [falling, single point]
Cc1ccc(-c2nnc(N3CCC(C)CC3)c3ccccc23)cc1C	-37.3	29.1 µM [falling, single point]	29.1 µM [falling, single point]
COc1cc(C(=O)N/N=C(\Cc2ncc[nH]2)c2ccccc2)cc(OC)c1OC	-33		5.8 µM [falling, partial curve]
Cc1cc(C(=O)Oc2cccnc2)ccc1[N+](=O)[O-]	23.1	4.61 µM [falling, single point]	
COc1ccccc1OCCCOc1cccc(/C=C2\SC(=O)NC2=O)c1	2.55	5.8 µM [rising, full curve]	
Cc1ccc2[nH]cc(C(=O)CN3CCN(c4ccccc4F)CC3)c2c1	39.4	25.9 µM [rising, partial curve]	0.92 µM [rising, partial curve]
O=C1CN(S(=O)(=O)c2cccc(Cl)c2Cl)c2ccccc2N1	-31.4	0.00461 µM [rising, full curve, poor fit]	0.058 µM [falling, partial curve, poor fit]
CC1CCN(c2nc3ccc(C(=O)N4CCN(Cc5ccc6c(c5)OCO6)CC4)cc3s2)CC1	-39.7	0.082 µM [rising, full curve]	25.9 µM [falling, single point]
CC(C)Cc1nnc(NC(=O)CCc2c[nH]c3ccccc23)s1	12.6		
CCCn1c(=S)[nH]c2cc(C(=O)N3CCc4ccccc43)ccc2c1=O	-1.06	0.291 µM [rising, partial curve, poor fit]	
Cc1nc(NS(=O)(=O)c2ccccc2)sc1C(=O)NNS(=O)(=O)c1ccccc1	14	29.1 µM [rising, single point]	
COc1cc(CCC(=O)OCC(=O)Nc2c(Cl)cccc2Cl)cc(OC)c1OC	2.52		
O=[N+]([O-])c1cc(Br)c(O)c(/C=N/Nc2nc3ccccc3s2)c1	27.8		

Given in markdown: entries from further up

| Structure (SMILES) | cell number change [%] | AC50 [1] | AC50 [2] |
| --- | --- | --- | --- |
| Cc1cccc(N(CC(=O)NCc2ccc3c(c2)OCO3)C(=O)CCC(=O)Nc2ccccn2)c1 | -6.31 | 5.17 µM [rising, partial curve] |  |
| O=C(CN1CCN(c2ccccc2F)CC1)Nc1nnc(C(F)(F)F)s1 | -3.28 | 1.16 µM [falling, single point] |  |
| Cc1ccc(-c2nn3c(C)nnc3s2)cc1NC(=O)c1ccc(-c2ccc(Cl)cc2Cl)o1 | -62 | 5.17 µM [falling, full curve] | 5.17 µM [falling, full curve, poor fit] |
| CCOc1ccc(CN(C)CC(=O)Nc2cc(C)c(C)cc2[N+](=O)[O-])cc1 | 24.7 | 29.1 µM [rising, single point] |  |
| COc1ccccc1NC(=O)C1CCN(C(=O)c2ccco2)CC1 | 2.56 | 5.17 µM [rising, single point] |  |
| COc1ccc(-c2cc3c(=O)n(CC(=O)Nc4ccc(Cl)cc4)ncn3n2)cc1 | -17.1 | 6.51 µM [rising, single point] |  |
| CCCCC1=CC2=C(c3ccco3)C(=O)C(C)(OC(=O)c3ccc(OC)cc3)C(=O)C2=CN1CCCCO (stereo not drawn) | -14.4 |  | 6.51 µM [falling, single point] |
| Cc1ccc(-c2nnc(N3CCC(C)CC3)c3ccccc23)cc1C | -37.3 | 29.1 µM [falling, single point] | 29.1 µM [falling, single point] |
| COc1cc(C(=O)N/N=C(\Cc2ncc[nH]2)c2ccccc2)cc(OC)c1OC | -33 |  | 5.8 µM [falling, partial curve] |
| Cc1cc(C(=O)Oc2cccnc2)ccc1[N+](=O)[O-] | 23.1 | 4.61 µM [falling, single point] |  |
| COc1ccccc1OCCCOc1cccc(/C=C2\SC(=O)NC2=O)c1 | 2.55 | 5.8 µM [rising, full curve] |  |
| Cc1ccc2[nH]cc(C(=O)CN3CCN(c4ccccc4F)CC3)c2c1 | 39.4 | 25.9 µM [rising, partial curve] | 0.92 µM [rising, partial curve] |

Later entries:

Structure (SMILES)	cell number change [%]	AC50 [1]	AC50 [2]
COc1ccccc1N(CC(=O)NC1CCCCC1)C(=O)CCC(=O)Nc1ccccn1	31.7	2.59 µM [rising, full curve]	2.91 µM [rising, partial curve]
COc1ccc2nc(SCC(=O)Nc3cc(C)on3)[nH]c2c1	74.6	18.4 µM [rising, partial curve]	16.4 µM [rising, single point]
COc1ccc(N2C(=O)c3ccc(C(=O)Nc4ccccc4O)cc3C2=O)cc1	-5.41	29.1 µM [falling, single point]	
COc1ccc(-c2nn(-c3ccccc3)cc2C(=O)N2CCN(S(=O)(=O)c3cccc(F)c3)CC2)cc1	72.7		4.61 µM [rising, full curve]
COc1ccccc1NC(=O)CSc1nnc(C)o1			0.58 µM [falling, single point]
CSc1nccc(Oc2ccc(C#N)cc2)n1	-43.2	5.8 µM [falling, partial curve]	29.1 µM [falling, single point]
COc1ccc(-c2noc(-c3ccccc3-c3ccccc3)n2)cc1	0.621		
COc1ccc(NCc2n[nH]nc2-c2ccccc2)cc1Cl	-23.2	0.651 µM [falling, full curve, poor fit]	
O=C(Nc1ncn[nH]1)C(F)(F)C(F)F	-22.1	23.1 µM [falling, partial curve]	0.731 µM [falling, full curve, poor fit]
COc1cccc(N2CCN(CC(=O)c3c[nH]c4ccc(OC)cc34)CC2C)c1 (stereo not drawn)		0.651 µM [rising, single point]	
COc1ccc(CC(=O)NNC(=O)c2ccc(SCc3cc(F)ccc3F)c([N+](=O)[O-])c2)cc1	-23.5	2.91 µM [falling, full curve]	
Nc1nc(N)c(C=Nc2ccc(Br)cc2)c(Nc2ccc(Br)cc2)n1	-72	11.6 µM [falling, partial curve]	13 µM [falling, partial curve]
O=C(Nc1nccs1)c1ccc(Cl)c(S(=O)(=O)N2CCCCC2)c1	-6.44	6.51 µM [rising, single point]	
COC(=O)c1c(CCl)noc1C(=O)NCC1CCCO1 (stereo not drawn)	4		7.31 µM [falling, partial curve]
CCOC(=O)C1CCN(Cc2ccc(F)c(F)c2)CC1	-133	0.116 µM [falling, full curve, poor fit]	32.6 µM [falling, partial curve]
N#Cc1ccc(OCC(=O)Nc2ccccc2NS(=O)(=O)c2cccs2)cc1	1.83		
C[C@@H]1C=C[C@](Cc2ccccc2)(C(=O)NCCc2c[nH]c3ccccc23)N1C(=O)c1ccccc1	-34.8	23.1 µM [falling, single point]	23.1 µM [falling, single point]
CCCCNC(=O)COC(=O)c1ccc(Cl)c(S(N)(=O)=O)c1	-28.4	29.1 µM [falling, single point]	
COc1nc(-c2ccc(C)cc2)ccc1-c1noc(-c2ccco2)n1	-32.2		32.6 µM [falling, single point]
